Sequences of proteins named here, by UniProt entry; tags and fusion partners are left off. A change or cut given only in a name is not applied to a line headed by its entry.
UniProt Q59054: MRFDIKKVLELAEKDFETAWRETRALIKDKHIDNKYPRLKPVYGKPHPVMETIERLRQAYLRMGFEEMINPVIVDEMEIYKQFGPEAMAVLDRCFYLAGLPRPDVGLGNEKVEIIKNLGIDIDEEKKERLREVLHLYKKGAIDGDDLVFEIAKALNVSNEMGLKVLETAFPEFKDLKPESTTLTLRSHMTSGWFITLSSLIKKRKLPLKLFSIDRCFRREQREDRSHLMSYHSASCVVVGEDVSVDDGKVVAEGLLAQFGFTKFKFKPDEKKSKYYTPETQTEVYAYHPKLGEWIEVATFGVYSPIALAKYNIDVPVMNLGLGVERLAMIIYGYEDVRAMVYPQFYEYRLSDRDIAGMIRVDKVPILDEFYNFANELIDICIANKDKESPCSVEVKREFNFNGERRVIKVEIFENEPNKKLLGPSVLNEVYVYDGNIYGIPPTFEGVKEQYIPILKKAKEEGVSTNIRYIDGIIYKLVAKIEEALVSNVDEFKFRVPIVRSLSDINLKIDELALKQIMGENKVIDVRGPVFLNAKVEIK

In article PMC5688128, “Structural basis for tRNA-dependent cysteine biosynthesis” (Nature Communications, 2017):

How the values were obtained:
Experiment in all cases: SEC; 100 µM SepRS variants incubated with 400 µM SepCysE variants; Superdex 200 10/300 GL; 20 mM HEPES-NaOH pH 7.5, 300 mM NaCl, 10% glycerol; both purified
[1] = molecular target: SepRS deletion mutant of loop 2 (411–414 FNGE) (Methanocaldococcus jannaschii) (UniProt Q59054)
[2] = molecular target: SepRS deletion mutant of loop 1 (376–380 ILDEF) (Methanocaldococcus jannaschii) (UniProt Q59054)
[3] = molecular target: SepRS deletion mutant of loop 3 (494–498 ALVSN) (Methanocaldococcus jannaschii) (UniProt Q59054)

Measured: binding

B1: SepCysE (SepRS/SepCysS pathway enhancer), Methanocaldococcus jannaschii (natural protein)
chain: MRVEYSKDLIRKGISTISQLKKAKIRVEKDDKKISYKDAKPGKIDVNEFKKAIYLLIEADDFLYKKAPKHELNEEEAKEFCKLIIKCQEHLNKILANFGFEFEEKEIDEGALYIVSNKKLFKKLKNKNPNLKVVCTEGMLDIEDMRAIGVPEKALEGLKKKVEIARKNVERFIEKYKPEKIFVVVEDDKDELLYLRAKNLYNAEKLDADEILD
notes: SepCysE of Methanocaldococcus jannaschii; wild type
binds: [1] | [2] | [3]

No constants are given. Whether binding was seen depends on the method and setting. Binding calls can cover weak binding; strength is not graded here.
